PubChem BioAssay AID1224830, NIAID, 2016
Purpose: 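Genes whose knock-down alters the TNF-alpha reporter response to LPS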 (primary screen). Cell system: human THP-1 monocytic leukaemia cells, TNF dual-luciferase reporter clone, PMA-differentiated to macrophage-like cells. Reagents: siRNA pool against human genes, 50 nM. Timing: LPS for 4 h, given about 3 days after siRNA transfection. Challenge: bacterial LPS (TLR4 ligand), 10 ng/ml. Read-out: 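TNF firefly reporter luminescence divided by renilla, normalised to the plate median, then turned into a robust z-score for each replicate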. Reading the numbers: TNF reporter robust z-score: higher = stronger TNF reporter response to LPS. Hit rule: 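Each well counts as active if its z-score is over 2.8 or under -1.5; controls are left without a call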.
The whole screen tested about 18,000 reagents; shown is a part drawn at random. About 2,900 of them (16%) count as active. 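Calls are made per well; low scores hint the gene aids the LPS response, high scores that it dampens it.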 Repeated entries: four replicate wells of each siRNA pool.

no.	gene symbol	TNF reporter robust z-score	call
1	CABIN1 (GeneID 23523)	-1.15	inactive
2	CABIN1 (GeneID 23523)	-0.3	inactive
3	CABIN1 (GeneID 23523)	-0.15	inactive
4	CABIN1 (GeneID 23523)	-0.53	inactive
5	RRAD (GeneID 6236)	-1.51	active
6	RRAD (GeneID 6236)	-1.31	inactive
7	RRAD (GeneID 6236)	-0.5	inactive
8	RRAD (GeneID 6236)	-0.38	inactive
9	NAGS (GeneID 162417)	0.33	inactive
10	NAGS (GeneID 162417)	3.03	active
11	NAGS (GeneID 162417)	1.9	inactive
12	HYCC1 (GeneID 84668)	0.98	inactive
13	HYCC1 (GeneID 84668)	0.13	inactive
14	HYCC1 (GeneID 84668)	0.11	inactive
15	HYCC1 (GeneID 84668)	2.26	inactive
16	DDX6 (GeneID 1656)	-0.43	inactive
17	DDX6 (GeneID 1656)	-1.08	inactive
18	DDX6 (GeneID 1656)	-0.75	inactive
19	DDX6 (GeneID 1656)	-0.87	inactive
20	CAPRIN2 (GeneID 65981)	-1.59	active
21	CAPRIN2 (GeneID 65981)	-1.6	active
22	CAPRIN2 (GeneID 65981)	-1.15	inactive
23	CAPRIN2 (GeneID 65981)	-1.44	inactive
24	MPST (GeneID 4357)	1.51	inactive
25	MPST (GeneID 4357)	1.26	inactive
26	MPST (GeneID 4357)	0.81	inactive
27	MPST (GeneID 4357)	0.29	inactive
28	UTP25 (GeneID 27042)	-1.81	active
29	UTP25 (GeneID 27042)	-1.41	inactive
30	UTP25 (GeneID 27042)	-1.17	inactive
31	UTP25 (GeneID 27042)	-1.5	inactive
32	CCDC148 (GeneID 130940)	1.05	inactive
33	CCDC148 (GeneID 130940)	3.75	active
34	CCDC148 (GeneID 130940)	0.66	inactive
35	CCDC148 (GeneID 130940)	0.69	inactive

Reformatted: results already given
{"gene symbol": "CAPRIN2 (GeneID 65981)", "TNF reporter robust z-score": -1.6, "call": "active"}
{"gene symbol": "CAPRIN2 (GeneID 65981)", "TNF reporter robust z-score": -1.15, "call": "inactive"}
{"gene symbol": "CAPRIN2 (GeneID 65981)", "TNF reporter robust z-score": -1.44, "call": "inactive"}
{"gene symbol": "MPST (GeneID 4357)", "TNF reporter robust z-score": 1.51, "call": "inactive"}
{"gene symbol": "MPST (GeneID 4357)", "TNF reporter robust z-score": 1.26, "call": "inactive"}
{"gene symbol": "MPST (GeneID 4357)", "TNF reporter robust z-score": 0.81, "call": "inactive"}
{"gene symbol": "MPST (GeneID 4357)", "TNF reporter robust z-score": 0.29, "call": "inactive"}
{"gene symbol": "UTP25 (GeneID 27042)", "TNF reporter robust z-score": -1.81, "call": "active"}
{"gene symbol": "UTP25 (GeneID 27042)", "TNF reporter robust z-score": -1.41, "call": "inactive"}
{"gene symbol": "UTP25 (GeneID 27042)", "TNF reporter robust z-score": -1.17, "call": "inactive"}
{"gene symbol": "UTP25 (GeneID 27042)", "TNF reporter robust z-score": -1.5, "call": "inactive"}
{"gene symbol": "CCDC148 (GeneID 130940)", "TNF reporter robust z-score": 1.05, "call": "inactive"}

The results go on.
no.	gene symbol	TNF reporter robust z-score	call
36	SERPINA4 (GeneID 5267)	-1.13	inactive
37	SERPINA4 (GeneID 5267)	-1.79	active
38	SERPINA4 (GeneID 5267)	-1.98	active
39	SERPINA4 (GeneID 5267)	-1.84	active
40	TMEM64 (GeneID 169200)	0.84	inactive
41	TMEM64 (GeneID 169200)	1.65	inactive
42	TMEM64 (GeneID 169200)	2.19	inactive
43	TMEM64 (GeneID 169200)	2.97	active
44	KLK14 (GeneID 43847)	1.97	inactive
45	KLK14 (GeneID 43847)	1.22	inactive
46	KLK14 (GeneID 43847)	3.13	active
47	KLK14 (GeneID 43847)	3.78	active
48	OIP5 (GeneID 11339)	-0.66	inactive
49	OIP5 (GeneID 11339)	-0.44	inactive
50	OIP5 (GeneID 11339)	-0.63	inactive
51	OIP5 (GeneID 11339)	-0.49	inactive
52	CRHR2 (GeneID 1395)	0.13	inactive
53	CRHR2 (GeneID 1395)	0.17	inactive
54	CRHR2 (GeneID 1395)	-0.15	inactive
55	CRHR2 (GeneID 1395)	0.44	inactive
56	SHCBP1L (GeneID 81626)	2.14	inactive
57	SHCBP1L (GeneID 81626)	1.87	inactive
58	SHCBP1L (GeneID 81626)	-0.63	inactive
59	SHCBP1L (GeneID 81626)	0.18	inactive
60	COL20A1 (GeneID 57642)	-1.24	inactive
61	COL20A1 (GeneID 57642)	-1.58	active
62	COL20A1 (GeneID 57642)	-1.75	active
63	COL20A1 (GeneID 57642)	-1.52	active
64	CLCF1 (GeneID 23529)	-0.23	inactive
65	CLCF1 (GeneID 23529)	3.08	active
66	CLCF1 (GeneID 23529)	0.64	inactive
67	CLCF1 (GeneID 23529)	2.31	inactive
68	APCS (GeneID 325)	1.25	inactive
69	APCS (GeneID 325)	3.4	active
70	APCS (GeneID 325)	1.55	inactive
71	APCS (GeneID 325)	3.18	active
72	NES (GeneID 10763)	0.06	inactive
73	NES (GeneID 10763)	0.1	inactive
74	NES (GeneID 10763)	-0.34	inactive
75	NES (GeneID 10763)	-0.07	inactive
